Source: the supplement of paper PMC8728848
The list shows a part of the results.

Legend:
Assay in all cases: glycan array binding signal (z-score within array); higher = stronger binding
Settings in all cases: glycan notation: IUPAC condensed, linker removed
Neu5Ac(a2-8)Neu5Ac = target: Neu5Ac(a2-8)Neu5Ac
Summary of the method: (§1)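 Glycan array data were curated from 3228 arrays in the Consortium for Functional Glycomics database and kept only where the protein sequence was available. Glycan names were converted to IUPAC-condensed notation, and columns mapping to the same glycan were averaged. The binding signal is a within-array Z-score, averaged across arrays of the same protein sequence at different concentrations or buffers and across linkers. Negative Z-scores can be read as non-binding.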

[1] = target: Neu5Ac(a2-8)Neu5Ac(a2-3)Gal(b1-3)GalNAc(b1-4)[Neu5Ac(a2-3)]Gal(b1-4)Glc
Summary of the method: as §1

[2] = target: Neu5Ac(a2-8)Neu5Ac(a2-3)Gal(b1-3)GalNAc(b1-4)[Neu5Ac(a2-8)Neu5Ac(a2-3)]Gal(b1-4)Glc
Summary of the method: as §1

[3] = target: Neu5Ac(a2-8)Neu5Ac(a2-3)Gal(b1-4)Glc
Summary of the method: as §1

[4] = target: Neu5Ac(a2-8)Neu5Ac(a2-3)Gal(b1-4)GlcNAc
Summary of the method: as §1

[5] = target: Neu5Ac(a2-8)Neu5Ac(a2-3)[Gal(b1-3)GalNAc(b1-4)]Gal(b1-4)Glc
Summary of the method: as §1

[6] = target: Neu5Ac(a2-8)Neu5Ac(a2-3)[GalNAc(b1-4)]Gal(b1-4)Glc
Summary of the method: as §1

[7] = target: Neu5Ac(a2-8)Neu5Ac(a2-8)Neu5Ac
Summary of the method: as §1

[8] = target: Neu5Ac(a2-8)Neu5Ac(a2-8)Neu5Ac(a2-3)Gal(b1-4)Glc
Summary of the method: as §1

[9] = target: Neu5Ac(a2-8)Neu5Ac(a2-8)Neu5Ac(a2-3)[Gal(b1-3)GalNAc(b1-4)]Gal(b1-4)Glc
Summary of the method: as §1

[10] = target: Neu5Ac(a2-8)Neu5Ac(a2-8)Neu5Ac(a2-3)[GalNAc(b1-4)]Gal(b1-4)Glc
Summary of the method: as §1

[11] = target: Neu5Ac(a2-8)Neu5Ac(a2-8)Neu5Ac(a2-8)Neu5Ac(a2-3)[GalNAc(b1-4)]Gal(b1-4)Glc
Summary of the method: as §1

[12] = target: Neu5Ac(a2-8)Neu5Gc(a2-3)Gal(b1-4)GlcNAc
Summary of the method: as §1

[13] = target: Neu5Ac(b2-6)Gal(b1-4)GlcNAc
Summary of the method: as §1

Neu5Ac(b2-6)GalNAc = target: Neu5Ac(b2-6)GalNAc
Summary of the method: as §1

[14] = target: Neu5Ac9Ac(a2-3)Gal(b1-3)GlcNAc
Summary of the method: as §1

[15] = target: Neu5Ac9Ac(a2-3)Gal(b1-4)GlcNAc
Summary of the method: as §1

[16] = target: Neu5Ac9Ac(a2-6)Gal(b1-4)GlcNAc
Summary of the method: as §1

[17] = target: Neu5Gc(a2-3)Gal(b1-3)GlcNAc
Summary of the method: as §1

[18] = target: Neu5Gc(a2-3)Gal(b1-3)[Fuc(a1-4)]GlcNAc
Summary of the method: as §1

Neu5Gc(a2-3)Gal(b1-4)Glc = target: Neu5Gc(a2-3)Gal(b1-4)Glc
Summary of the method: as §1

[19] = target: Neu5Gc(a2-3)Gal(b1-4)GlcNAc
Summary of the method: as §1

[20] = target: Neu5Gc(a2-3)Gal(b1-4)GlcNAc(b1-3)Gal(b1-4)GlcNAc(b1-2)Man(a1-3)[Neu5Gc(a2-3)Gal(b1-4)GlcNAc(b1-3)Gal(b1-4)GlcNAc(b1-2)Man(a1-6)]Man(b1-4)GlcNAc(b1-4)GlcNAc
Summary of the method: as §1

[21] = target: Neu5Gc(a2-3)Gal(b1-4)[Fuc(a1-3)]GlcNAc
Summary of the method: as §1

[22] = target: Neu5Gc(a2-6)Gal(b1-4)GlcNAc
Summary of the method: as §1

Neu5Gc(a2-6)GalNAc = target: Neu5Gc(a2-6)GalNAc
Summary of the method: as §1

[23] = target: Neu5Gc(a2-8)Neu5Ac(a2-3)Gal(b1-4)GlcNAc
Summary of the method: as §1

[24] = target: Neu5Gc(a2-8)Neu5Gc(a2-3)Gal(b1-4)GlcNAc
Summary of the method: as §1

[25] = target: Neu5Gc(a2-8)Neu5Gc(a2-3)Gal(b1-4)GlcNAc(b1-3)Gal(b1-4)GlcNAc
Summary of the method: as §1

[26] = target: Neu5Gc(a2-8)Neu5Gc(a2-6)Gal(b1-4)GlcNAc
Summary of the method: as §1

[27] = target: Neu5Gc(b2-6)Gal(b1-4)GlcNAc
Summary of the method: as §1

B1: Epa3to2 (Candida glabrata) (protein)
chain: MGSSHHHHHHSSGLVPRGSHMKRELSSQNPFGYPIGCSPQDVAIIPGLTMELYSYPIVSGTPPNCYDASYVDPEYPRTGYLKRKMVGKSTGVTGNLNYKYSVEKACMVKYGNLPAGYNYNEPLTVSNFTMILYGYFKAQTTGLHTFFVNADDLLYINFGAGNAFDCCKREDSKTKLGEYVAYDIWHVDSSKNKVSLFLEKDLYYPIRMFFNNRDNNSSLDLSFSVNGATDQISDFSGYLYSVPDQPDTCPAHIGYDTTCR
glycan array binding signal (z-score) (Neu5Ac(a2-8)Neu5Ac): 1.01 | glycan array binding signal (z-score) [1]: 1.15 | glycan array binding signal (z-score) [2]: 0.096 | glycan array binding signal (z-score) [3]: -0.638 | glycan array binding signal (z-score) [4]: 0.968 | glycan array binding signal (z-score) [5]: -0.449 | glycan array binding signal (z-score) [6]: -0.072 | glycan array binding signal (z-score) [7]: 0.097 | glycan array binding signal (z-score) [8]: -0.732 | glycan array binding signal (z-score) [9]: -0.828 | glycan array binding signal (z-score) [10]: 0.534 | glycan array binding signal (z-score) [11]: 0.003 | glycan array binding signal (z-score) [12]: -0.595 | glycan array binding signal (z-score) [13]: -0.873 | glycan array binding signal (z-score) (Neu5Ac(b2-6)GalNAc): -1.11 | glycan array binding signal (z-score) [14]: 0.098 | glycan array binding signal (z-score) [15]: -1.22 | glycan array binding signal (z-score) [16]: -0.257 | glycan array binding signal (z-score) [17]: 0.144 | glycan array binding signal (z-score) [18]: -0.394 | glycan array binding signal (z-score) (Neu5Gc(a2-3)Gal(b1-4)Glc): 0.038 | glycan array binding signal (z-score) [19]: 0.238 | glycan array binding signal (z-score) [20]: -0.277 | glycan array binding signal (z-score) [21]: 0.62 | glycan array binding signal (z-score) [22]: 0.391 | glycan array binding signal (z-score) (Neu5Gc(a2-6)GalNAc): 2.12 | glycan array binding signal (z-score) [23]: -1.36 | glycan array binding signal (z-score) [24]: -0.979 | glycan array binding signal (z-score) [25]: -0.803 | glycan array binding signal (z-score) [26]: -0.432 | glycan array binding signal (z-score) [27]: -0.999
